Results from article PMC6834639.
These are yes or no findings as the source states them, for the method shown. Some binding calls cover weakened binding; strength is not graded here.

T1: dD Aβ (1–10)
T1 chain: DAEFRHDSGY

T2: dS Aβ (1–10)
T2 chain: DAEFRHDSGY

B1: dD Aβ (1–10) (peptide)
peptide: DAEFRHDSGY
modifications: here or on the partner: D-aspartic acid at the underlined Asp residues (D1 and D7 by the letters); D-aspartic acid at the underlined Asp residues (D1 and D7 by the letters)
B2: dS Aβ (1–10) (peptide)
peptide: DAEFRHDSGY
modifications: here or on the partner: D-serine at the underlined Ser (S8 by the letters); D-serine at the underlined Ser (S8 by the letters)

Assays:
dD Aβ (1–10) = biological target: T1, dD Aβ (1–10); test: native MS; IM-MS of oligomers of one Aβ fragment alone; Aβ (1–10) and Aβ (1–16) 600 µM, 10 mM NH4OAc; oligomers of many sizes seen, a printed size is the largest one; both purified; settings: remark: other sources report otherwise
dS Aβ (1–10) = biological target: T2, dS Aβ (1–10); test: as above; settings: remark: other sources report otherwise

Binder	binding (dD Aβ (1–10))	binding (dS Aβ (1–10))
B1	binds	
B2		binds
